PubChem BioAssay AID1224830, NIAID, 2016
Aim: 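Host factors that control LPS-induced TNF expression in human macrophages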 (primary screen). System: human THP-1 monocytic leukaemia cells, TNF dual-luciferase reporter clone, PMA-differentiated to macrophage-like cells. Reagents: siRNA pool against human genes, 50 nM. Time to read-out: LPS for 4 h, given about 3 days after siRNA transfection. Challenge: bacterial LPS (TLR4 ligand), 10 ng/ml. Measured: 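TNF firefly reporter luminescence divided by renilla, normalised to the plate median, then turned into a robust z-score for each replicate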. Scale: TNF reporter robust z-score: higher = stronger TNF reporter response to LPS. Rule for the call: 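a well is active when its z-score exceeds 2.8 or falls below -1.5; control wells carry no call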.
The whole screen tested about 18,000 reagents; this is a random part of them. About 2,900 of all reagents (16%) count as active. 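Calls are made per well; low scores hint the gene aids the LPS response, high scores that it dampens it.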 Entries without a mark were called inactive. Repeated entries: four replicate wells of each siRNA pool. Reagent sequences are not shown.

no.	Gene	TNF reporter robust z-score
1	ACY3	0.63
2	ACY3	0.31
3	ACY3	-0.26
4	ACY3	0.11
5	C3orf52	0.22
6	C3orf52	0.02
7	C3orf52	-0.56
8	C3orf52	-0.94
9	LRP5L	0.73
10	LRP5L	0.96
11	LRP5L	-0.33
12	MCCC2	-0.89
13	MCCC2	-0.73
14	MCCC2	-0.54
15	MCCC2	0.1
16	RELL1	0.67
17	RELL1	-0.27
18	RELL1	-1.14
19	RELL1	-1.05
20	KRT1	0.17
21	KRT1	1.49
22	KRT1	0.22
23	KRT1	0.85
24	PLEKHJ1	-0.95
25	PLEKHJ1	-0.54
26	PLEKHJ1	-0.65
27	PLEKHJ1	-0.57
28	NPB	-0.73
29	NPB	0.09
30	NPB	-0.34
31	NPB	0.15
32	GPX4	-2.11 (active)
33	GPX4	-1.31
34	GPX4	-1.92 (active)
35	GPX4	-1.55 (active)
36	OR14A16	0.48
37	OR14A16	0.36
38	OR14A16	1.19
39	OR14A16	0.4
40	GPX5	0.18
41	GPX5	2.17
42	GPX5	1.52
43	GPX5	0.59
44	ITGA2B	-0.64
45	ITGA2B	0.1
46	ITGA2B	0.97
47	ITGA2B	-0.23
48	ATR	-1.85 (active)
49	ATR	-1.26
50	ATR	-1.38
51	ATR	-1.18
52	PCDHB13	-0.35
53	PCDHB13	-0.12
54	PCDHB13	-0.14

Next part; the last 20 above are carried over.
no.	Gene	TNF reporter robust z-score
35	GPX4	-1.55 (active)
36	OR14A16	0.48
37	OR14A16	0.36
38	OR14A16	1.19
39	OR14A16	0.4
40	GPX5	0.18
41	GPX5	2.17
42	GPX5	1.52
43	GPX5	0.59
44	ITGA2B	-0.64
45	ITGA2B	0.1
46	ITGA2B	0.97
47	ITGA2B	-0.23
48	ATR	-1.85 (active)
49	ATR	-1.26
50	ATR	-1.38
51	ATR	-1.18
52	PCDHB13	-0.35
53	PCDHB13	-0.12
54	PCDHB13	-0.14
55	CTTN	-0.42
56	CTTN	0.44
57	CTTN	-1.06
58	CTTN	0.27
59	PRORP	0.4
60	PRORP	0.94
61	PRORP	0.12
62	PRORP	0.9
63	BMAL1	-1.3
64	BMAL1	-1.14
65	BMAL1	0
66	BMAL1	-0.41
67	TRIM51	0.65
68	TRIM51	-0.62
69	TRIM51	0.69
70	TRIM51	0.26
71	ZNF99	-0.56
72	ZNF99	-0.34
73	ZNF99	-0.66
74	ZNF99	-0.2
75	ATP6V0A1	-0.54
76	ATP6V0A1	-0.08
77	ATP6V0A1	-0.89
78	ATP6V0A1	-0.02
79	KLC1	-0.67
80	KLC1	-0.32
81	KLC1	-0.48
82	KLC1	0
83	HSPA6	-0.32
84	HSPA6	-0.41
85	HSPA6	-0.89
86	HSPA6	-0.9
87	PI3	-0.91
88	PI3	-0.57
89	PI3	-0.67
90	PI3	-0.19
91	NRXN1	-0.35
92	NRXN1	0.39
93	NRXN1	1.09
94	NRXN1	1.95
95	CTRL	-1.23
96	CTRL	-0.69
97	CTRL	-1.52 (active)
98	CTRL	0.31
99	ZNF696	1.49
100	ZNF696	0.72
101	ZNF696	0.6
102	ZNF696	0.41
103	COQ8A	0.63
104	COQ8A	-0.33
105	COQ8A	0
106	COQ8A	0.52
107	ROBO3	0.03
108	ROBO3	0.37
109	ROBO3	-0.24
110	ROBO3	0.58
111	SPINK5	3.18 (active)
112	SPINK5	4.19 (active)
113	SPINK5	3.12 (active)
114	SPINK5	2.77
115	TNFSF4	2.1
116	TNFSF4	1.33
117	TNFSF4	4.51 (active)
118	TNFSF4	3.63 (active)
119	LDB2	-0.62
120	LDB2	-1.05
121	LDB2	-0.82
122	LDB2	-0.04
123	CDHR2	0.48
124	CDHR2	1.34
125	CDHR2	0.93
126	CDHR2	0.41
127	NSMAF	0.36
128	NSMAF	0
129	NSMAF	-0.25
130	NSMAF	0.06
131	KDF1	-0.58
132	KDF1	-0.61
133	KDF1	-1.1
134	KDF1	-0.45
135	AFAP1	0.57
136	AFAP1	0.84
137	AFAP1	-0.42
138	AFAP1	0.54
139	MAP3K19	0.38
140	MAP3K19	0.31
141	MAP3K19	2.01
142	MAP3K19	-0.2
